Record: PubChem BioAssay AID504808 (Drosophila RNAi Screening Center, 2011)

Purpose: 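Fly genes required to hold E2F transcription in check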 (primary screen)
Cell system: Drosophila S2 cells
Knock-down reagent: long dsRNA against Drosophila genes
Measurement: 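Dual luciferase plate measurements; E2F-specific signal taken as firefly over Renilla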
Reading the numbers: E2F firefly: higher = more E2F reporter activity; Renilla normaliser: higher = more normaliser reporter signal
Call rule: 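Called active if the normalised E2F reporter went up by over 50%; the cutoff is arbitrary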
In all, the deposit lists about 21,000 reagents; shown is a random part of those with a known target gene and a result. In the full data, 18 (0.084%) are marked active. 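Raw counts without plate normalisation, one of two replicates; the ratio scores behind the calls were not deposited.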 Reagents against one gene are numbered here. Names joined by + are all predicted targets of the reagent. Reagent sequences are not shown. Not given: the amount of reagent, the time to read-out.

CG2887
- E2F firefly, rep 1: 1.18e5
- Renilla normaliser, rep 1: 5504
- outcome: inactive

CG32081
- E2F firefly, rep 1: 1.38e5
- Renilla normaliser, rep 1: 6330
- outcome: inactive

jeb #1
- E2F firefly, rep 1: 87882
- Renilla normaliser, rep 1: 3991
- outcome: inactive

jeb #2
- E2F firefly, rep 1: 92185
- Renilla normaliser, rep 1: 3767
- outcome: inactive

CG7744
- E2F firefly, rep 1: 73221
- Renilla normaliser, rep 1: 3291
- outcome: inactive

MKP-4
- E2F firefly, rep 1: 1.73e5
- Renilla normaliser, rep 1: 5276
- outcome: inactive

CG43861 + CG12508 (retired record)
- E2F firefly, rep 1: 1.07e5
- Renilla normaliser, rep 1: 4474
- outcome: inactive

Cpr65Ay
- E2F firefly, rep 1: 1.33e5
- Renilla normaliser, rep 1: 4466
- outcome: inactive

Grip128
- E2F firefly, rep 1: 8128
- Renilla normaliser, rep 1: 892
- outcome: inactive

tau
- E2F firefly, rep 1: 1.02e5
- Renilla normaliser, rep 1: 4863
- outcome: inactive

Cp16
- E2F firefly, rep 1: 96912
- Renilla normaliser, rep 1: 3973
- outcome: inactive

Nepl21
- E2F firefly, rep 1: 1955
- Renilla normaliser, rep 1: 1104
- outcome: inactive

AQP
- E2F firefly, rep 1: 93274
- Renilla normaliser, rep 1: 3919
- outcome: inactive

Cyp4d1 #1
- E2F firefly, rep 1: 87265
- Renilla normaliser, rep 1: 2529
- outcome: inactive

Cyp4d1 #2
- E2F firefly, rep 1: 1.07e5
- Renilla normaliser, rep 1: 5138
- outcome: inactive

alpha-Catr
- E2F firefly, rep 1: 94219
- Renilla normaliser, rep 1: 3981
- outcome: inactive

CG2909
- E2F firefly, rep 1: 1.12e5
- Renilla normaliser, rep 1: 5649
- outcome: inactive

CG1812
- E2F firefly, rep 1: 1.91e5
- Renilla normaliser, rep 1: 6292
- outcome: inactive

CG7252
- E2F firefly, rep 1: 66119
- Renilla normaliser, rep 1: 3080
- outcome: inactive

CG13814 (retired record)
- E2F firefly, rep 1: 1.16e5
- Renilla normaliser, rep 1: 5431
- outcome: inactive

CG14892
- E2F firefly, rep 1: 93750
- Renilla normaliser, rep 1: 6336
- outcome: inactive

Adk1
- E2F firefly, rep 1: 1.42e5
- Renilla normaliser, rep 1: 5990
- outcome: inactive

CG33258
- E2F firefly, rep 1: 1.38e5
- Renilla normaliser, rep 1: 3945
- outcome: inactive

Tps1
- E2F firefly, rep 1: 87904
- Renilla normaliser, rep 1: 3716
- outcome: inactive

Top2
- E2F firefly, rep 1: 1.28e5
- Renilla normaliser, rep 1: 4664
- outcome: inactive

CG14034
- E2F firefly, rep 1: 1.62e5
- Renilla normaliser, rep 1: 5788
- outcome: inactive

Hk #1
- E2F firefly, rep 1: 52696
- Renilla normaliser, rep 1: 2177
- outcome: inactive

Hk #2
- E2F firefly, rep 1: 7318
- Renilla normaliser, rep 1: 820
- outcome: inactive

Hk #3
- E2F firefly, rep 1: 78640
- Renilla normaliser, rep 1: 5100
- outcome: inactive

3 neighbouring records from above, for reference:
Cyp4d1 #1
- E2F firefly, rep 1: 87265
- Renilla normaliser, rep 1: 2529
- outcome: inactive

Cyp4d1 #2
- E2F firefly, rep 1: 1.07e5
- Renilla normaliser, rep 1: 5138
- outcome: inactive

alpha-Catr
- E2F firefly, rep 1: 94219
- Renilla normaliser, rep 1: 3981
- outcome: inactive
